Reference: PMC11190991, “Encapsulation of Transketolase into In Vitro-Assembled Protein Nanocompartments Improves Thermal Stability” (ACS Applied Bio Materials, 2024)
These are yes or no findings as the source states them, for the method shown. Blank lines part the entries; values can stand above or below the molecule they belong to.

Key:
[1] = target: Myxococcus xanthus encapsulin (T = 1 and T = 3 capsid shells) (Myxococcus xanthus) (UniProt Q1D6H4); assay: native gel or EMSA; BN-PAGE of samples disassembled in denaturant: 6 M GuHCl, 8 M urea (20 mM Tris-Cl pH 7.5), 0.15 M HCl pH 1.0 or 0.15 M NaOH pH 13.0; both purified
[2] = target: Myxococcus xanthus encapsulin (T = 1 and T = 3 capsid shells) (Myxococcus xanthus) (UniProt Q1D6H4); assay: condition: only after disassembly in 6 M GuHCl and 10-fold dilution in reassembly buffer; native gel or EMSA; BN-PAGE of Mx_encap after disassembly in 6 M GuHCl or 0.15 M NaOH pH 13.0 and 10-fold dilution in reassembly buffer; both purified
[3] = target: Thermotoga maritima encapsulin (T = 1 capsid shell) (Thermotoga maritima) (UniProt Q9WZP2); assay: SEC; in vitro loading during reassembly (10 μM encapsulin monomer, cargo at stated molar ratio), SEC on Superose 6 to remove non-encapsulated cargo, co-eluted cargo seen by SDS-PAGE and quantified by densitometry against standard curves; both purified

- binding [1]: no binding (condition: in 8 M urea)
- binding [2]: no binding
Molecule: Myxococcus xanthus encapsulin (T = 1 and T = 3 capsid shells) (from UniProt Q1D6H4 1-287)

B1: E. coli transketolase without cargo loading peptide (enzyme, UniProt P27302 1-663)
chain: MSSRKELANAIRALSMDAVQKAKSGHPGAPMGMADIAEVLWRDFLKHNPQNPSWADRDRFVLSNGHGSMLIYSLLHLTGYDLPMEELKNFRQLHSKTPGHPEVGYTAGVETTTGPLGQGIANAVGMAIAEKTLAAQFNRPGHDIVDHYTYAFMGDGCMMEGISHEVCSLAGTLKLGKLIAFYDDNGISIDGHVEGWFTDDTAMRFEAYGWHVIRDIDGHDAASIKRAVEEARAVTDKPSLLMCKTIIGFGSPNKAGTHDSHGAPLGDAEIALTREQLGWKYAPFEIPSEIYAQWDAKEAGQAKESAWNEKFAAYAKAYPQEAAEFTRRMKGEMPSDFDAKAKEFIAKLQANPAKIASRKASQNAIEAFGPLLPEFLGGSADLAPSNLTLWSGSKAINEDAAGNYIHYGVREFGMTAIANGISLHGGFLPYTSTFLMFVEYARNAVRMAALMKQRQVMVYTHDSIGLGEDGPTHQPVEQVASLRVTPNMSTWRPCDQVESAVAWKYGVERQDGPTALILSRQNLAQQERTEEQLANIARGGYVLKDCAGQPELIFIATGSEVELAVAAYEKLTAEGVKARVVSMPSTDAFDKQDAAYRESVLPKAVTARVAVEAGIADYWYKYVGLNGAIVGMTTFGESAPAELLFEEFGFTVDNVVAKAKELL
- binding [3]: no binding (tested: 1:1 ratio of TK to capsid monomer)
